Data reported in publication PMC11535217.
No constants are given. Whether binding was seen depends on the method and setting. Binding seen in cells or lysates may run through a third protein. Binding can be weak; no strength is given.

Chains of the proteins cited; added tags and fusions are not shown. Lines headed by an entry give the natural chain unless they say otherwise; changes in a name come on top.
UniProt Q99836: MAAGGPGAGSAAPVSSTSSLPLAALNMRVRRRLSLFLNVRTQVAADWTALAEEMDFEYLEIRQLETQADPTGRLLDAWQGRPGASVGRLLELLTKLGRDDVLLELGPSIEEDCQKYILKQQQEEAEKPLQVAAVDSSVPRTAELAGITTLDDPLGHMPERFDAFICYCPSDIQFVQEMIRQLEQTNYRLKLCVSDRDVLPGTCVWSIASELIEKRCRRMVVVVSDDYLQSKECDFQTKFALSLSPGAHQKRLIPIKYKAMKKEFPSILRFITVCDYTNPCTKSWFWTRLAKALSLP
UniProt P58753: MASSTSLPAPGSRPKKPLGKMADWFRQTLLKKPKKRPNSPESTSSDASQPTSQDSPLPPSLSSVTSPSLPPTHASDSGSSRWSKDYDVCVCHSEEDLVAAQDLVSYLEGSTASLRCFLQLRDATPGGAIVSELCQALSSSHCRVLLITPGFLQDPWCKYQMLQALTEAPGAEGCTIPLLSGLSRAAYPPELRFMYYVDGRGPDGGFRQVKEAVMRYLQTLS
UniProt Q8IUC6: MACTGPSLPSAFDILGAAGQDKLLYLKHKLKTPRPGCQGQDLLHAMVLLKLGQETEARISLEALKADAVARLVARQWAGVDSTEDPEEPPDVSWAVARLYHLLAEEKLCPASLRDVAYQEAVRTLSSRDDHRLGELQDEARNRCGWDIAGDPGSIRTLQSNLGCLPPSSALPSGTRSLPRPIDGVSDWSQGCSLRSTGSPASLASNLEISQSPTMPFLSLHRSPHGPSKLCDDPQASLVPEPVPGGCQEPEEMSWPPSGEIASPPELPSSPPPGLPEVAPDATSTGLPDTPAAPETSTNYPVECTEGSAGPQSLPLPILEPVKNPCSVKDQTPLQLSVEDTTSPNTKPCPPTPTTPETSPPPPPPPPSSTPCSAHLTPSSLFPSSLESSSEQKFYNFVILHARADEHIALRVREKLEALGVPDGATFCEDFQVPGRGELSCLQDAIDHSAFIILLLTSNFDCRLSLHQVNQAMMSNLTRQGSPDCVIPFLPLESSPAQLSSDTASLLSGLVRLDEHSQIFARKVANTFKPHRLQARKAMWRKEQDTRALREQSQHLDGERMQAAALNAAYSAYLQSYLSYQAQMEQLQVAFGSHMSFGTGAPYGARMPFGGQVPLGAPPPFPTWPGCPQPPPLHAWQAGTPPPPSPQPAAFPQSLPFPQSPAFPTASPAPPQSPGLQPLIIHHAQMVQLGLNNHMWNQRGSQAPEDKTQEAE
UniProt Q86XR7: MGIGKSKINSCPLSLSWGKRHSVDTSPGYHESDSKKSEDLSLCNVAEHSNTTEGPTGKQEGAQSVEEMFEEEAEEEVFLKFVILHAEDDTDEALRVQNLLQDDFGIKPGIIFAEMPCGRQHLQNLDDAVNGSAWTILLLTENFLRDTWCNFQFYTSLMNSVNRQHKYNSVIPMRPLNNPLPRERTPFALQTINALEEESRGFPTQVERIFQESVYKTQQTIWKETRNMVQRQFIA
UniProt O00206: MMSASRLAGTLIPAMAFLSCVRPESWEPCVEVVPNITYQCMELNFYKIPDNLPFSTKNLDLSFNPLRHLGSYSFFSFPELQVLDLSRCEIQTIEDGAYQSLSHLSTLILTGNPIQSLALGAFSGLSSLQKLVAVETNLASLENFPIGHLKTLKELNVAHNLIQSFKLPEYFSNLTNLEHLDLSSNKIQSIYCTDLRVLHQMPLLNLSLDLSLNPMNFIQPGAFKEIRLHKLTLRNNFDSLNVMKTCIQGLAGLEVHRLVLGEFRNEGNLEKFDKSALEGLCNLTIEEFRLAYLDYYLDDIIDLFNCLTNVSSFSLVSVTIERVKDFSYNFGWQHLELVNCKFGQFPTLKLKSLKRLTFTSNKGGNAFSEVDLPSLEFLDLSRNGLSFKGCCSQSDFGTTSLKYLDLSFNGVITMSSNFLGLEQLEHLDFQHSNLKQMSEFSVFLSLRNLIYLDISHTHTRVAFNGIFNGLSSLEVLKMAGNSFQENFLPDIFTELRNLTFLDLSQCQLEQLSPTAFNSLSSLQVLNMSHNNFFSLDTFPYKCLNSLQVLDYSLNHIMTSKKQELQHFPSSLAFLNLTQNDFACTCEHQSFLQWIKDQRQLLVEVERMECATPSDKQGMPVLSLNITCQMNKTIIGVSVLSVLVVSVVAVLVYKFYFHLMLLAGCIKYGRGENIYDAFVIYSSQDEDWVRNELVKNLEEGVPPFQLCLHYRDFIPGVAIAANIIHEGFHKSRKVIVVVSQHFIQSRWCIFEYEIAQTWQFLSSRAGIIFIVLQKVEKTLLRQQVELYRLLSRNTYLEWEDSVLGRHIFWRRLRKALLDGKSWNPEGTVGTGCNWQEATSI

Columns and labels:
Test in all cases: co-IP; HEK293T transfected with tagged plasmids, with or without 1 μM TSA (6, 12 or 24 h); RIPA lysate; immunoprecipitation with Flag or HA antibody, western blot with Myc antibody
[1] = target: HA-MyD88 (human) (human) (UniProt Q99836)
[2] = target: Flag-MAL (human, full-length) (human) (UniProt P58753)
[3] = target: Flag-TRIF (full-length) (UniProt Q8IUC6)
[4] = target: HA-MyD88-K261A (human) (human) (UniProt Q99836)
[5] = target: Flag-TRAM (full-length) (UniProt Q86XR7)
[6] = target: Flag-MAL-R207A (human) (human) (UniProt P58753)
[7] = target: Flag-MAL-E211A (human) (human) (UniProt P58753)

binding [1]: binds
binding [2]: binds
binding [3]: binds
binding [4]: binds
binding [5]: binds
binding [6]: binds
binding [7]: binds
Substance: Myc-TLR4-TIR (human TLR4 cytoplasmic TIR domain) (from UniProt O00206) (domain or fragment)
